Results taken from paper PMC5841295.

Amino acid sequences for entries named in this document (tags omitted). A change or cut given only in a name is not applied to a line headed by its entry.
UniProt Q07812: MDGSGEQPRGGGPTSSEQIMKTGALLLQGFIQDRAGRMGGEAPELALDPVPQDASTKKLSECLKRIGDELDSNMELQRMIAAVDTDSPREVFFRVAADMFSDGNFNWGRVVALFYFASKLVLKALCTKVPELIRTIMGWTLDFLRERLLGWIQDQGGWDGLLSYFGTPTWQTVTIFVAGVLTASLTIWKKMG

Target: GST-Bax (UniProt Q07812)
Test: pull-down; recombinant GST-Bax and MBP-Bid-HA applied to Glutathione sepharose 4B beads, washed with OG buffer (10 mM TrisHCl pH 7.4, 150 mM NaCl, 0.1% octyl glycoside); first elution with purified PLEKHN1 (and Bax) or control buffer, second elution with 30 mM reduced glutathione; both purified

binding: binds
B1: MBP-Bid-HA (protein, UniProt P55957 1-195)
chain: MDCEVNNGSSLRDECITNLLVFGFLQSCSDNSFRRELDALGHELPVLAPQWEGYDELQTDGNRSSHSRLGRIEADSESQEDIIRNIARHLAQVGDSMDRSIPPGLVNGLALQLRNTSRSEEDRNRDLATALEQLLQAYPRDMEKEKTMLVLALLLAKKVASHTPSLLRDVFHTTVNFINQNLRTYVRSLARNGMD

These are yes or no findings as the source states them, for the method shown. A result given as binding can be weak or reduced; the word gives no strength. Tags and fused reporters may be left off the sequences shown.
